The values below come from patent US11834499.

The chains behind the UniProt entries cited, without tags or fusion partners. Where a name states a change or a piece, a line headed by the entry shows the natural chain unless it says otherwise.
UniProt P08637: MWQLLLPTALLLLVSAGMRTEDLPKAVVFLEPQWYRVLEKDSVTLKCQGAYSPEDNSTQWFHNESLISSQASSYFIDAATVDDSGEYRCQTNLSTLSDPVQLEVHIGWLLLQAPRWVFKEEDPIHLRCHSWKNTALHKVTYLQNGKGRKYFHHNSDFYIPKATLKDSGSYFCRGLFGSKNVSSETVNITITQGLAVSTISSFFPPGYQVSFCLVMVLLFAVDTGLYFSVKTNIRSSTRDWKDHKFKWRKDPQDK

The target in the assay is CD16A (UniProt P08637). Description: flow cytometry, anti-His AF647 detection, Jurkat-Lucia-NFAT-CD16A cells. (In general: Flow cytometry measures light scatter and fluorescence of single cells or particles in a stream.)

These are yes or no findings as the source states them, for the method shown. Binding calls can cover weak binding; strength is not graded here. Where a sequence is shown, tags or fusion partners need not be part of it.

B1: 02-0358-h3-CD16A-His, CLDN18.2-CD16A TandAb (bispecific antibody)
chain: QVQLVQSGAEVKKPGESLKVSCKASGYTFTSYYMHWVRQAPGQGLEWMGIINPSGGSTSYAQKFQGRVTMTRDTSTSTVYMELSSLRSEDTAVYYCARGSAYYYDFADYWGQGTLVTVSSGGSGGSGGSDIVMTQSPDSLAVSLGERVTMNCKSSQSLFNSGNQRNYLTWYQQKPGQPPKLLIYWASTRESGVPDRFSGSGSGTDFTLTISSVQAEDVAVYYCQNVYIYPLTFGQGTKLEIKGGSGGSGGSEVQLVESGGGLVQPGGSLRLSCAVSGFTFSSFGMHWVRQAPGKGLEWVAYISSGTTNIYYADSVKGRFTVSRDNAKNSLYLQMNSLRAEDTAVYYCVRSGYYGNSLDYWGQGTLVTVSSGGSGGSGGSSYVLTQPSSVSVAPGQTATISCGGHNIGSKNVHWYQQRPGQSPVLVIYQDNKRPSGIPERFSGSNSGNTATLTISGTQAMDEADYYCQVWDNYSVLFGGGTKLTVLHHHHHH
Regarding B1, the binding entry is “binds”.

B2: 02-0307-h4-CD16A_His, CLDN18.2-CD16A TandAb (bispecific antibody)
chain: QVQLVQSGAEVKKPGESLKVSCKASGYTFTSYYMHWVRQAPGQGLEWMGIINPSGGSTSYAQKFQGRVTMTRDTSTSTVYMELSSLRSEDTAVYYCARGSAYYYDFADYWGQGTLVTVSSGGSGGSGGSDIVMTQSPDSLAVSLGERVTMNCKSSQSLLNSGNQKNYLSWYQQKPGQPPKLLFYWASTRESGVPDRFSGSGSGTDFTLTISSVQAEDVAVYYCQNDYSYPFTFGQGTKLEIKGGSGGSGGSEVQLLESGGGLVQPGGSLRLSCAASGFTFSSYTMSWVRQAPGKGLEWVATIIIGGSYTYYADSVKGRFTISRDNSKNTLYLQMNSLRAEDTAVYYCTRLVKGNAMDYWGQGTLVTVSSGGSGGSGGSSYVLTQPSSVSVAPGQTATISCGGHNIGSKNVHWYQQRPGQSPVLVIYQDNKRPSGIPERFSGSNSGNTATLTISGTQAMDEADYYCQVWDNYSVLFGGGTKLTVLHHHHHH
Consider B2, for which the binding entry was “binds”.
